Molecules are shown by their SMILES. The list does not hold the whole screen: it is rich in T/C values a quarter to a half above the control, in often repeated tests (any T/C) and in doses without a T/C. Further doses and runs are listed elsewhere. T/C is the treated group as % of the vehicle group. Some entries give survivors of the animals treated and no T/C: the source holds a T/C of zero for them, seemingly a mark for toxic or unscored doses. Some doses without a T/C left all or most animals alive at the check, yet need not have been tolerated: survival well below the control is almost never listed, so the zero probably covers shortened survival too. Counts of survivors are from the toxicity check (mostly the fifth day) where no day follows; animals may have died later. Schedules are NCI's codes, read here as Q, the interval in days (D) or hours (H), X, the number of doses. Some structures stand for samples that the source files as different forms (salt, stereo form or complex); doses refer to the form tested. For survival time, the PubChem record calls one and a half times the control and up active, and a quarter to a half above the control has no call in these data; cut-offs in other NCI protocols can differ. Some T/C values are followed by the survivors on the day toxicity was checked, most often the fifth; where none is given, no animal had died by that day.

The test system of the assay is P388 leukemia ip, CD2F1 mice, survival T/C. In words: NCI In Vivo Anticancer Drug Screen. Data for tumor model P388 Leukemia (intraperitoneal) in CD2F1 (CDF1) mice. To be noted: T/C endpoint: median survival time, higher T/C = longer survival.
[1] abbreviates: dose: 6.25 mg/kg/injection, schedule: Q01DX009 (ip), vehicle: saline.
The mark [2] stands for this setting: dose: 12.5 mg/kg/injection, schedule: Q01DX009 (ip), vehicle: saline.
Where [3] appears, read: dose: 50.0 mg/kg/injection, schedule: Q01DX009 (ip), vehicle: saline.
Setting [4] is: dose: 100.0 mg/kg/injection, schedule: Q01DX009 (ip), vehicle: saline.
The mark [5] stands for this setting: dose: 200.0 mg/kg/injection, schedule: Q01DX009 (ip), vehicle: saline.
The mark [6] stands for this setting: dose: 100.0 mg/kg/injection, schedule: Q04DX003 (ip), vehicle: saline.
The mark [7] stands for this setting: dose: 200.0 mg/kg/injection, schedule: Q04DX003 (ip), vehicle: saline.
Where [8] appears, read: dose: 400.0 mg/kg/injection, schedule: Q04DX003 (ip), vehicle: saline.
Where [9] appears, read: dose: 50.0 mg/kg/injection, schedule: Q01DX005 (ip), vehicle: saline with Tween-80.
The mark [10] stands for this setting: dose: 100.0 mg/kg/injection, schedule: Q01DX005 (ip), vehicle: saline with Tween-80.
The mark [11] stands for this setting: dose: 200.0 mg/kg/injection, schedule: Q01DX005 (ip), vehicle: saline with Tween-80.
Setting [12] is: dose: 100.0 mg/kg/injection, schedule: Q01DX009 (ip), vehicle: saline with Tween-80.
The mark [13] stands for this setting: dose: 200.0 mg/kg/injection, schedule: Q01DX009 (ip), vehicle: saline with Tween-80.
[14] abbreviates: dose: 200.0 mg/kg/injection, schedule: Q01DX009 (ip), vehicle: Klucel (hydroxypropylcellulose) (HPC).
Setting [15] is: dose: 25.0 mg/kg/injection, schedule: Q01DX009 (ip), vehicle: Klucel (hydroxypropylcellulose) (HPC).
[16] abbreviates: dose: 50.0 mg/kg/injection, schedule: Q01DX009 (ip), vehicle: Klucel (hydroxypropylcellulose) (HPC).
Setting [17] is: dose: 100.0 mg/kg/injection, schedule: Q01DX009 (ip), vehicle: Klucel (hydroxypropylcellulose) (HPC).
The mark [18] stands for this setting: dose: 120.0 mg/kg/injection, schedule: Q01DX005 (ip), vehicle: Klucel (hydroxypropylcellulose) (HPC).
Setting [19] is: dose: 200.0 mg/kg/injection, schedule: Q01DX005 (ip), vehicle: saline.

As for `C[CH2][Sn](=[O])[CH2]C`, the T/C by setting is: under setting [1], 127 % of control [4 of 6 alive]; under setting [2], 137 % of control; under setting [3], 125 % of control [5 of 6 alive]. Also, the survivor count by setting is: under setting [3], 0 of 6; under setting [4], 4 of 6; under setting [5], 1 of 6.
Take `NC(N)=O.NC(N)=O.NC(N)=O.NC(N)=O.NC(N)=O.NC(N)=O.[Cr]`: the survivor count by setting is: (dose: 50.0 mg/kg/injection, schedule: Q04DX003 (ip), vehicle: saline) 3 of 6; under setting [6], 0 of 6; under setting [7], 0 of 6; under setting [8], 0 of 6.
For `COC(=O)/N=C1\C(=O)C=CC(O)=C1C(N)=O`, the survivor count runs as follows: under setting [9], 0 of 6; under setting [10], 0 of 6; under setting [11], 0 of 6.
For `CC1CN1C(=O)Nc1cccc(Cl)c1` (stereo unspecified), the survivor count under setting [5] is 5 of 6.
On to `[C-]#[N+]C([N+]#[C-])=C(C)OCC`, for which the survivor count runs as follows: under setting [3], 6 of 6; under setting [5], 6 of 6.
As to `O=C(N=Nc1c(Cl)c(O)c2ccccc2c1O)C(F)(F)F`, the survivor count runs as follows: (dose: 50.0 mg/kg/injection, schedule: Q01DX009 (ip), vehicle: saline with Tween-80) 3 of 6; under setting [12], 0 of 6; under setting [13], 0 of 6.
As for `CC(=O)Oc1c[nH]c(=O)[nH]c1=O`, under “dose: 400.0 mg/kg/injection, schedule: Q01DX009 (ip), vehicle: distilled water + Tween-80”, the T/C is 134 % of control. Besides, the survivor count (dose: 600.0 mg/kg/injection, schedule: Q01DX009 (ip), vehicle: distilled water + Tween-80) is 6 of 6.
`CCSc1nc2ccc(N=Cc3ccccc3O)cc2s1`: the survivor count under setting [14] is 5 of 6.
Consider `CC(=O)OCC(=O)[C@@]1(O)CC[C@H]2[C@@H]3CCC4=CC(=O)[C@H](C)C[C@]4(C)[C@@]3(F)[C@@H](O)C[C@@]21C`, for which the survivor count (dose: 400.0 mg/kg/injection, schedule: Q04DX003 (ip), vehicle: Klucel (hydroxypropylcellulose) (HPC)) was 6 of 6.
For the compound `COc1cc(CC2NCCc3cc(O)c(O)cc32)cc(OC)c1OC` (stereo unspecified), the survivor count was 0 of 6 under setting [15], 0 of 6 under setting [16] and 0 of 6 under setting [17].
With `CC[CH](C)[Sn](=[O])[CH](C)CC` (stereo unspecified), the survivor count was 2 of 6 (dose: 6.25 mg/kg/injection, schedule: Q01DX009 (ip), vehicle: suspension in saline); 2 of 6 (dose: 12.5 mg/kg/injection, schedule: Q01DX009 (ip), vehicle: suspension in saline); 0 of 6 (dose: 25.0 mg/kg/injection, schedule: Q01DX009 (ip), vehicle: suspension in saline); 0 of 6 under setting [3]; 0 of 6 under setting [4]; 0 of 6 under setting [5].
Turning to `CCCCC(CCCC)=NNC(=S)SC`, the survivor count under setting [13] is recorded as 1 of 6.
For `CSc1nc(N)c(NS(=O)(=O)c2ccc([N+](=O)[O-])cc2)c(=O)[nH]1`, the survivor count reads like this: under setting [18], 6 of 6; (dose: 240.0 mg/kg/injection, schedule: Q01DX005 (ip), vehicle: Klucel (hydroxypropylcellulose) (HPC)) 6 of 6.
`O=S1(=O)CCN(C2CCCC2)CC1`: the survivor count by setting is: under setting [15], 6 of 6; under setting [16], 6 of 6; under setting [17], 6 of 6; under setting [14], 6 of 6.
For `O=C(O)CSc1nc(-c2ccccc2)c(-c2ccccc2)n1-c1ccccn1`, the T/C (dose: 50.0 mg/kg/injection, schedule: Q01DX009 (ip), vehicle: water) is 127 % of control.
Consider `CCOc1ccc(NC(=O)C(=O)NNC(=S)NC)cc1`, for which the survivor count under setting [12] is on record as 6 of 6 and the survivor count under setting [13] is on record as 4 of 6.
As for `CC1(C)CC[P+](CC[P+]2(c3ccccc3)CCC(C)(C)c3ccccc32)(c2ccccc2)c2ccccc21` (stereo unspecified), the survivor count (dose: 6.25 mg/kg/injection, schedule: Q01DX005 (ip), vehicle: suspension in saline) is 4 of 5; the survivor count (dose: 12.5 mg/kg/injection, schedule: Q01DX005 (ip), vehicle: suspension in saline) was 0 of 5; the survivor count under setting [9] is reported as 5 of 5; the survivor count (dose: 50.0 mg/kg/injection, schedule: Q01DX005 (ip), vehicle: saline) is listed as 0 of 5; the survivor count under setting [10] is on record as 0 of 5; the survivor count (dose: 100.0 mg/kg/injection, schedule: Q01DX005 (ip), vehicle: saline) is 0 of 5. For the same compound, the survivor count runs as follows: under setting [11], 0 of 5; under setting [19], 0 of 5.
On to `CCc1cc(Cc2cc(CC)cc(C(C)(C)C)c2O)c(O)c(C(C)(C)C)c1`, for which, under setting [17], the survivor count is given as 6 of 6.
On to `O=C(OC1(c2nccc3ccccc23)CCN(Cc2ccccc2)CC1)c1ccccc1`, for which the survivor count under setting [12] is 6 of 6 and the survivor count under setting [13] was 6 of 6.
In the case of `CCC(C)P(=O)(N1CC1C)N1CC1C` (stereo unspecified), the survivor count runs as follows: under setting [2], 6 of 6; (dose: 25.0 mg/kg/injection, schedule: Q01DX009 (ip), vehicle: saline) 0 of 6; under setting [3], 0 of 6.
`CCCCCCCCCCC[N+]1(CC)CCCCC1`: the survivor count is on record as 2 of 6 (dose: 3.12 mg/kg/injection, schedule: Q01DX009 (ip), vehicle: saline); 1 of 6 under setting [1]; 3 of 6 under setting [2]; 0 of 6 under setting [3]; 0 of 6 under setting [4]; 0 of 6 under setting [5].
`C(=C\c1cc2cc(C3=NCCN3)ccc2o1)/c1cc2cc(C3=NCCN3)ccc2o1`: the T/C by setting is: under setting [6], 140 % of control; under setting [7], 137 % of control. The survivor count (dose: 200.0 mg/kg/injection, schedule: Q04DX003 (ip), vehicle: suspension in saline) was 4 of 6 and the survivor count under setting [8] is on record as 0 of 6.
On to `CN(C)CCN1c2ccccc2Oc2ccccc21`, for which the survivor count under setting [19] is recorded as 2 of 5.
Turning to `O=C1NC(O)c2cc([N+](=O)[O-])ccc2O1` (stereo unspecified), the survivor count (dose: 400.0 mg/kg/injection, schedule: Q01DX005 (ip), vehicle: saline with Tween-80) was 0 of 6.
Consider `CCC(=O)CC(O)CC(C)CC(NC(=O)C1CC(C)CN1C(=O)/C=C/C(C)CC)C(=O)NC(C(=O)NC(C)(C)C(=O)NC(CC(C)C)C(=O)NC(CC(C)C)C(=O)NC(C)(C)C(=O)NC(C)(C)C(=O)NCCC(=O)NC(C)CN(C)C)C(O)C(C)C` (stereo unspecified), for which the survivor count runs as follows: (dose: 0.75 mg/kg/injection, schedule: Q01DX005 (ip), vehicle: saline + alcohol) 0 of 6; (dose: 1.5 mg/kg/injection, schedule: Q01DX005 (ip), vehicle: saline + alcohol) 0 of 6; (dose: 3.0 mg/kg/injection, schedule: Q01DX005 (ip), vehicle: saline + alcohol) 0 of 6; (dose: 6.0 mg/kg/injection, schedule: Q01DX005 (ip), vehicle: saline + alcohol) 0 of 6; (dose: 12.0 mg/kg/injection, schedule: Q01DX005 (ip), vehicle: saline + alcohol) 0 of 6.
Consider `C/C=C(\C)C(=O)OC1C2C(C)=CC(=O)C(O)C2(C)C2C3(O)OCC24C1OC(=O)C(O)C4C(C)C3O` (stereo unspecified), for which, for the setting “dose: 5.0 mg/kg/injection, schedule: Q01DX005 (ip), vehicle: saline”, the T/C was 145 % of control. In addition, the survivor count reads like this: (dose: 60.0 mg/kg/injection, schedule: Q01DX005 (ip), vehicle: Klucel (hydroxypropylcellulose) (HPC)) 0 of 6; under setting [18], 0 of 6.

For the origin of these results see PubChem BioAssay AID330 (DTP/NCI, 2004).
